The target in this experiment is Vif-HA (HIV-1) (UniProt P69723). Kind of experiment: co-IP.

Sequences of proteins named here, by UniProt entry; tags and fusion partners are left off.
UniProt P69723: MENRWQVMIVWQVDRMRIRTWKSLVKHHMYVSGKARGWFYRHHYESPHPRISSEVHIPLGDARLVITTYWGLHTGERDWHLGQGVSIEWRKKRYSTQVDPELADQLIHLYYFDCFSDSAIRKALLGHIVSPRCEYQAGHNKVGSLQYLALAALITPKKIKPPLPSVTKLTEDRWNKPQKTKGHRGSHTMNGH
UniProt Q13951: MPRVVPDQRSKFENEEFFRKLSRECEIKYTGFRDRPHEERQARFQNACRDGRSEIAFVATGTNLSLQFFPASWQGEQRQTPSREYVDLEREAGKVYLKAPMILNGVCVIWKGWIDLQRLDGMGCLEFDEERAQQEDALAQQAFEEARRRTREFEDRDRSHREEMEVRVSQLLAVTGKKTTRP

Results are given in words; binding and its absence hold for the method and conditions named. Binding seen in cells or lysates may run through a third protein. Some entries that bind do so weakly or less than the wild type.

Turning to CBFβ-cmyc (from UniProt Q13951 1-182), the binding entry is recorded as “binds”.

For the origin of these results see article PMC11053914 (Viruses, 2024).
